# In PubChem BioAssay AID445 (National Center for Advancing Translational Sciences (NCATS), 2006):
# The other results are listed elsewhere or left out. These are further read-outs of the screen, such as a control signal, another cell line or another target. No call is given for them. Most of these compounds were active or inconclusive in the main read-out, so they are no random draw. Potencies come from curve fits of mixed quality, noted in brackets.
# Assay: IkB Signaling
# Details: ABC-DLBCL IkBa-CBG/CBR dual luciferase ratio (green luciferase fused to IkBa over red control in OCI-Ly3 lymphoma cells), 4 h
# In short: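 Curves were fitted separately to fusion (green), unfused (red) and ratio luminescence, then classed by r2, magnitude and activity. Cells: OCI-Ly3, 4 h compound plus doxycycline at 37C; 10 uM MG-132 defined full response.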
# [1] = measured here: control luc red channel unless noted
smiles,measurement,setting,value
CCOc1ccc(NC(=O)CC2C(=O)N(c3cccc(C)c3)C(=O)N2Cc2ccco2)cc1 (configuration not stated),AC50,[1],"15.8 µM [falling, partial curve]"
Cn1cccc1C(=O)Nc1nccs1,AC50,[1],"12.6 µM [falling, partial curve]"
CCOC(=O)C1CCN(C(=O)c2cc3ccc4ccc(C)[nH]c4c3n2)CC1,AC50,[1],"39.8 µM [falling, single point]"
c1ccc(Cn2c(CSc3nnnn3-c3ccccc3)nc3ccccc32)cc1,AC50,[1],"12.6 µM [falling, partial curve]"
O=C(Cc1ccc(Cl)cc1)NCC(c1cccs1)S(=O)(=O)c1ccc(Cl)cc1 (configuration not stated),AC50,[1],"15.8 µM [falling, partial curve]"
O=C(CSc1nnc(-c2ccccc2F)o1)N1CCc2ccccc21,AC50,[1],"39.8 µM [falling, single point]"
Cc1cccc(NC(=O)c2c(NC(=O)c3ccco3)sc3c2CCC(C(C)(C)C)C3)c1 (configuration not stated),AC50,[1],"15.8 µM [falling, partial curve, poor fit]"
CCCCCCc1nc2c(=O)[nH]c3ccccc3c2o1,AC50,[1],"0.0126 µM [rising, full curve, poor fit]"
Fc1ccccc1N1CCN(c2c3c(nc4nncn24)CCC3)CC1,AC50,[1],"25.1 µM [falling, partial curve, poor fit]"
Cc1ccc(OCCCC(=O)Nc2sc3c(c2C(N)=O)CCCC3)cc1,AC50,[1],"15.8 µM [falling, partial curve]"
CCCCN(C)C(=O)Cn1ncc2c([nH]c3ccc(C)cc32)c1=O,AC50,[1],"12.6 µM [falling, partial curve]"
Cc1ccc(C)c(Cn2c(=O)n(CCCC(=O)NCc3ccc4c(c3)OCO4)c(=O)c3sccc32)c1,AC50,[1],"10 µM [falling, partial curve]"
CCCSc1ncc(Cl)c(C(=O)N2CCN(c3ccc(OC)cc3)CC2)n1,AC50,[1],"15.8 µM [falling, single point]"
Oc1ccc(-c2nc(-c3ccc(O)c(O)c3)cs2)cc1,AC50,[1],"25.1 µM [falling, partial curve]"
COc1ccccc1N1CCN(C(=O)CSc2nc(-c3ccco3)cc(C(F)(F)F)n2)CC1,AC50,[1],"20 µM [falling, partial curve]"
CC(C)Oc1ccc(C(=O)N2CCCCC2CCN2CCCCC2)cc1 (configuration not stated),AC50,[1],"3.16 µM [rising, single point]"
O=C(NCc1ccc(Cl)cc1Cl)c1cccc(N2CCCS2(=O)=O)c1,AC50,[1],"31.6 µM [falling, partial curve]"
CCCN(CCC)S(=O)(=O)c1cccc(C(=O)Nc2ccc3c(c2)OCO3)c1,AC50,[1],"31.6 µM [falling, partial curve]"
N#CC1=C(N)N2C(=C(C#N)C13CCN(Cc1ccccc1)CC3)Nc1ccccc12,AC50,[1],"12.6 µM [falling, partial curve]"
COc1cc2c(cc1NC(=O)C(C)Oc1ccccc1)oc1ccccc12 (configuration not stated),AC50,[1],"12.6 µM [falling, partial curve]"
Cc1cc(C)c2c(N)c(C(=O)Nc3ccccc3C(F)(F)F)sc2n1,AC50,[1],"15.8 µM [falling, partial curve]"
CCCCCCC1CCC(C(=O)NC(C(=O)O)C(C)C)CC1 (configuration not stated),AC50,[1],"0.2 µM [falling, full curve]"
O=C(CSc1oc(-c2ccco2)nc1S(=O)(=O)c1ccc(Cl)cc1)Nc1ccc(F)cc1,AC50,[1],"7.94 µM [falling, full curve, poor fit]"
COc1ccc2c(Sc3ccc(Cl)cc3)c(C(=O)N3CCCCC3)[nH]c2c1,AC50,[1],"15.8 µM [falling, partial curve]"
COc1ccc(N2CCN(CCCNC(=O)c3ccc4nc(N5CCCCC5)sc4c3)CC2)cc1,AC50,[1],"15.8 µM [falling, single point]"
CC1(C)CC(N2CCN(c3ccccc3)CC2)=CC(=[N+]2CCCC2)C1,AC50,[1],"15.8 µM [falling, partial curve]"
Cc1ccc(CNC(=O)c2ccc(CS(=O)(=O)c3ccccc3C)o2)cc1,AC50,[1],"25.1 µM [falling, single point]"
CCOCCN1CCN(c2c3c(nc4cc(-c5ccc(F)cc5)nn24)CCC3)CC1,AC50,[1],"12.6 µM [falling, partial curve]"
COc1ccccc1NC(=O)Cn1c(=O)n(-c2ccc(C)cc2)c(=O)c2c1cnn2C,AC50,[1],"25.1 µM [falling, partial curve, poor fit]"
CCOc1ccc(NC(=O)c2oc3ccccc3c2NC(=O)c2cc3ccccc3o2)cc1,AC50,[1],"2 µM [falling, partial curve]"
O=C(Nc1ccc(Br)cc1)c1cccc(S(=O)(=O)N2CCc3ccccc32)c1,AC50,[1],"3.16 µM [falling, full curve]"
CCN1C(=O)c2cccc3c(S(=O)(=O)Nc4ccc(OC)cc4OC)ccc1c23,AC50,[1],"12.6 µM [falling, partial curve]"
Cc1nc2c(c(C)nn2-c2ccccc2)c(C)c1CCC(=O)NCc1ccccc1,AC50,[1],"25.1 µM [falling, partial curve]"
O=C(CSc1nnc(-c2ccco2)n1Cc1ccccc1)NC(=O)NCc1ccccc1,AC50,[1],"12.6 µM [falling, partial curve]"
Cc1cc2cc3c(cc2nc1SCC(=O)O)OCCO3,AC50,[1],"3.16 µM [falling, full curve, poor fit] [measured here: IkB-luc green channel]"
COc1ccc(C)cc1Nc1nc(N)c2cc(OC)c(OC)cc2n1,AC50,[1],"12.6 µM [falling, partial curve]"
COc1ccc(CN2CCCN(CC(=O)Nc3ccc4c(c3)OCCO4)S2(=O)=O)cc1,AC50,[1],"25.1 µM [falling, partial curve, poor fit]"
O=C(c1ccccc1C(=O)N1CCN(c2ccc(F)cc2)CC1)N1CCN(c2ccc(F)cc2)CC1,AC50,[1],"7.94 µM [falling, partial curve]"
COc1ccc(C2CC(=O)N(CC(=O)Nc3cccc(C)c3C)c3ccccc3S2)cc1OC (configuration not stated),AC50,[1],"0.1 µM [falling, full curve, poor fit]"
COc1ccc(N(CC(=O)NCCc2ccc(Cl)cc2)S(=O)(=O)c2c(C)nn(C)c2C)cc1,AC50,[1],"15.8 µM [falling, single point]"
Cc1ccc(Sc2ccc(N3CCCC(C(=O)Nc4ccc(F)cc4F)C3)nn2)cc1 (configuration not stated),AC50,[1],"3.98 µM [falling, full curve]"
Cc1nn(C)c2c1c(C(F)(F)F)cc(=O)n2CC(=O)N1CCC(C)CC1,AC50,[1],"20 µM [falling, partial curve]"
O=C(CSc1nnc(COc2cccc3cccnc23)o1)c1ccc(F)cc1,AC50,[1],"39.8 µM [falling, single point]"
CCC(=O)N1CCc2cc(S(=O)(=O)NC(C(=O)Nc3cc(OC)cc(OC)c3)C(C)C)ccc21 (configuration not stated),AC50,[1],"25.1 µM [falling, single point]"
Cn1cnc(S(=O)(=O)N2CCCC(C(=O)Nc3ccc(OC(F)(F)F)cc3)C2)c1 (configuration not stated),AC50,[1],"10 µM [falling, partial curve]"
COCCCNC(=O)c1ccc2nc(CCc3ccccc3)oc2c1,AC50,[1],"2.51 µM [rising, partial curve]"
C[C@@]12C=CC(=O)C=C1CC[C@@H]1[C@@H]2[C@H](O)C[C@]2(C)[C@@H]1CC[C@]2(O)C(=O)CO,AC50,[1],"6.31 nM [rising, full curve] [measured here: IkB-luc green channel]"
Cc1c(Cl)ccc2sc(N3CCN(C(=O)CS(=O)(=O)c4ccccc4)CC3)nc12,AC50,[1],"31.6 µM [falling, partial curve]"
CCCN1CCN(CCCNC(=O)c2c(C)nn(-c3ccc(F)cc3)c2-n2cccc2)CC1,AC50,[1],"12.6 µM [falling, partial curve]"
CCOc1ccc(CNC(=O)Cn2c(=O)c3cccn3c3ccccc32)cc1,AC50,[1],"15.8 µM [falling, partial curve]"
Cc1nnc(N2CCCC(C(=O)NCCc3ccccc3)C2)c2nn(-c3ccccc3)c(C)c12 (configuration not stated),AC50,[1],"25.1 µM [falling, single point]"
Cc1ccn2cc(-c3ccc(C)c(NS(=O)(=O)c4ccc(Cl)cc4)c3)nc2c1,AC50,[1],"20 µM [falling, partial curve]"
Cc1cc(C)c(NC(=O)Cn2c(=O)n(Cc3ccc(C(=O)NCc4ccco4)cc3)c(=O)c3sccc32)c(C)c1,AC50,measured here: IkB-luc green channel,"15.8 µM [rising, partial curve]"
same,AC50,measured here: control luc red channel,"39.8 µM [rising, single point]"
COC(=O)c1cc2oc3ccccc3c2n1CC(=O)Nc1ccc(C)cc1C,AC50,[1],"2 µM [rising, full curve]"
CN(C)CCNC(=O)c1ccc2c(c1)N(Cc1c(F)cccc1Cl)C(=O)c1ccccc1S2,AC50,[1],"10 µM [falling, partial curve]"
CCOC(=O)Cn1c(=O)oc2cc(S(=O)(=O)N3CCN(c4cc(C)ccc4C)CC3)ccc21,AC50,[1],"12.6 µM [falling, partial curve]"
CCOC(=O)c1ccc(NC(=O)CSc2cn(CC(=O)N3CCCC3)c3ccccc23)cc1,AC50,[1],"25.1 µM [falling, single point]"
COC(=O)c1ccc2c(c1)N(CC(=O)Nc1ccc(OC)c(Cl)c1)C(=O)c1ccccc1S2,AC50,[1],"3.16 µM [falling, full curve]"
Cc1ccc(-n2nc3c(N4CCCC(C(=O)NCc5ccc(Cl)cc5)C4)nnc(C)c3c2C)cc1 (configuration not stated),AC50,[1],"25.1 µM [falling, partial curve]"
O=C(CCS(=O)(=O)c1nc(-c2cccs2)cc(C(F)(F)F)n1)Nc1cc(Br)ccc1O,AC50,[1],"3.16 µM [falling, full curve]"
O=C(CSc1nnc(-c2ccc(Br)cc2)o1)Nc1cccc2ccccc12,AC50,[1],"0.0794 µM [falling, full curve]"

# 3 entries picked at random from the list so far, as already listed:
smiles,measurement,setting,value
CCOCCN1CCN(c2c3c(nc4cc(-c5ccc(F)cc5)nn24)CCC3)CC1,AC50,[1],"12.6 µM [falling, partial curve]"
CCCN(CCC)S(=O)(=O)c1cccc(C(=O)Nc2ccc3c(c2)OCO3)c1,AC50,[1],"31.6 µM [falling, partial curve]"
Cn1cccc1C(=O)Nc1nccs1,AC50,[1],"12.6 µM [falling, partial curve]"
